Laboratory results taken from PubChem BioAssay AID662 (National Center for Advancing Translational Sciences (NCATS), 2007).
The other results are listed elsewhere or left out. Further columns of the screen follow, without active or inactive calls. The list favours compounds with an active or inconclusive main result. The note in brackets gives the kind of curve behind each potency; many fits are weak.

Assay: Cell signaling CRE-BLA (Fsk stim)
Conditions: CHO CRE-bla reporter (cAMP response element driving beta-lactamase), forskolin EC10, beta-lactamase ratio; measured here: 460 nm blue channel
How it was run: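 qHTS titration format; CRE-bla CHO reporter; stimulus EC10 NKH 477, a water-soluble forskolin. Read: CCF4 460/530 nm ratio. Potency expressed as AC50 for activators or inhibitors.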

Structure (SMILES)	AC50
CC(=O)NCCn1c(SCC(=O)NCCC2=CCCCC2)nc2ccccc2c1=O	0.00794 µM [rising, full curve, poor fit]
O=C(OCC(COC(=O)c1ccccc1)(COC(=O)c1ccccc1)COC(=O)c1ccccc1)c1ccccc1	1.26 µM [falling, full curve, poor fit]
CCOC(=O)Cc1csc(NC(=O)CS(=O)(=O)Cc2ccccc2)n1	25.1 µM [rising, single point]
CCSc1ncc(C#N)c(=O)[nH]1	0.251 µM [falling, full curve]
CCCNC(=O)c1cccc(COCC(F)(F)C(F)F)c1	0.631 µM [rising, full curve]
CCOC1OC2C(CO)OC(n3cnc4c(N)ncnc43)C2O1 (centres undefined)	20 µM [rising, single point]
CC(C)C[C@@H](CC(=O)N[C@@H](CCC(=O)O)CC(=O)O)NC(=O)[C@@H]1CCCC[C@H]1NC(=O)C[C@H](CCCN)NC(=O)C[C@H](CO)NC(=O)[C@@H]1CNCC[C@H]1N	6.31 µM [falling, partial curve, poor fit]
CCNc1nc(N)nc(Oc2ccc(OCCOc3ccccc3)nn2)n1	10 µM [rising, partial curve]
CCc1ccc2[nH]c(=O)c(CN(CCCN3CCOCC3)C(=O)Nc3ccc(F)cc3)cc2c1	10 µM [rising, partial curve]
CN(C)c1nccc(Nc2ccccc2)c1C#N	10 µM [rising, single point]
CCc1cc(=O)oc2cc(OC(C)=O)cc(OC(C)=O)c12	10 µM [rising, partial curve]
Cn1c(=O)c2c(nc(SCCCC#N)n2Cc2c(F)cccc2Cl)n(C)c1=O	10 µM [rising, partial curve]
O=C(CC1(O)CCCCC1)OC1CCCC1	2.51 µM [rising, single point]
COc1ccccc1-c1nnc2sc(COc3ccc(F)cc3)nn12	1.26 µM [rising, partial curve]
CC(C)CNS(=O)(=O)c1ccc(CCC(=O)O)cc1	25.1 µM [rising, single point]
CCCn1c(Nc2nc3ccccc3n2C)nc2ccccc21	3.98 µM [rising, single point]
CCN(Cc1cc2ccccc2[nH]c1=O)C(=O)C1CCCCC1	25.1 µM [rising, single point]
COc1ccccc1CCn1c(=O)c(-c2ccc(Cl)cc2)nc2cncnc21	12.6 µM [rising, partial curve]
COc1ccc(S(=O)(=O)CCC(=O)NCCc2ccc(S(N)(=O)=O)cc2)cc1	0.316 µM [falling, full curve, poor fit]

A few values from above.
CC(=O)NCCn1c(SCC(=O)NCCC2=CCCCC2)nc2ccccc2c1=O | AC50: 0.00794 µM [rising, full curve, poor fit]
CCOC1OC2C(CO)OC(n3cnc4c(N)ncnc43)C2O1 (centres undefined) | AC50: 20 µM [rising, single point]
